{"source": "patent US20220313789A1", "about": "“TARGETING MELANOCORTIN 3 RECEPTOR FOR TREATMENT/PREVENTION OF EATING, METABOLISM, AND/OR EMOTIONAL DISORDERS” (The Regents of the University of Michigan, priority 2019, published 2022)", "tested_on": "MC3R TB/TB mice", "conditions": "for Change in body weight during liraglutide administration, MC3R KO vs WT: once daily liraglutide", "note": "Like-named read-outs stand apart in the source and are kept apart here. At least one compound was matched to its structure with a doubt left."}
{"smiles": "CCCCCCCCCCCCCCCC(=O)N[C@@H](CCC(=O)NCCCC[C@H](NC(=O)[C@H](C)NC(=O)[C@H](C)NC(=O)[C@H](CCC(N)=O)NC(=O)CNC(=O)[C@H](CCC(=O)O)NC(=O)[C@H](CC(C)C)NC(=O)[C@H](Cc1ccc(O)cc1)NC(=O)[C@H](CO)NC(=O)[C@H](CO)NC(=O)[C@@H](NC(=O)[C@H](CC(=O)O)NC(=O)[C@H](CO)NC(=O)[C@@H](NC(=O)[C@H](Cc1ccccc1)NC(=O)[C@@H](NC(=O)CNC(=O)[C@H](CCC(=O)O)NC(=O)[C@H](C)NC(=O)[C@@H](N)Cc1cnc[nH]1)[C@@H](C)O)[C@@H](C)O)C(C)C)C(=O)N[C@@H](CCC(=O)O)C(=O)N[C@@H](Cc1ccccc1)C(=O)N[C@H](C(=O)N[C@@H](C)C(=O)N[C@@H](Cc1c[nH]c2ccccc12)C(=O)N[C@@H](CC(C)C)C(=O)N[C@H](C(=O)N[C@@H](CCCNC(=N)N)C(=O)NCC(=O)N[C@@H](CCCNC(=N)N)C(=O)NCC(=O)O)C(C)C)[C@@H](C)CC)C(=O)O", "note": "[liraglutide]", "values": [{"measurement": "inhibition of food intake, MC3R knockout vs wild type mouse", "setting": "mouse, in vivo", "value": "greater inhibition of food intake"}, {"measurement": "Change in body weight during liraglutide administration, MC3R KO vs WT", "value": "lost more weight during liraglutide administration"}, {"measurement": "Change in body weight during liraglutide administration, MC3R KO vs WT", "setting": "listed as Liraglutide", "value": "greater weight loss"}]}
